Taken from: PubChem BioAssay AID1259254 (NCATS, 2017)
Shown is one part, drawn at random, of about 59,000 reagents tested. About 1,550 of them (2.6%) were called active. 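G2 share is only a proxy for re-replication; each gene was hit by three separate siRNAs, and active genes were retested.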 The raw values are shown without normalisation. The record does not give: the amount of reagent.

Purpose: 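Genome-wide screen for genes that prevent DNA re-replication in cancer cells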 (primary screen)
Cells: human HCT116 colorectal cancer cells
Reagents: single siRNA against human genes
Time to read-out: 3 days
Measured: 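Imaged Hoechst DNA stain sorts each cell into a cycle phase by DNA amount; per plate, G2 fraction set to 0% for non-targeting and 100% for GMNN siRNA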
Scale: G2 robust z-score and G2 cells, % of GMNN control: higher = more G2 cells, more excess DNA replication; raw share of cells in G2: higher = larger share of cells with G2 DNA content
Hit rule: 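An siRNA counts as active if its G2 robust z-score lies at least 5 MADs above the screen median; here such calls match roughly 38% of GMNN control or more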

target gene,PubChem SID,G2 robust z-score,"G2 cells, % of GMNN control",raw share of cells in G2 (%),activity call
"SPINT2 (serine peptidase inhibitor, Kunitz type 2)",SID160728964,1.71,15,12.2,inactive
"SPINT2 (serine peptidase inhibitor, Kunitz type 2)",SID160728966,2.66,21.6,10.8,inactive
"SPINT2 (serine peptidase inhibitor, Kunitz type 2)",SID160728967,-0.327,0.665,6.74,inactive
CCDC62 (coiled-coil domain containing 62),SID160752534,2.27,18.9,10.4,inactive
CCDC62 (coiled-coil domain containing 62),SID160752535,-0.515,-0.653,3.26,inactive
CCDC62 (coiled-coil domain containing 62),SID160752536,-0.56,-0.97,2.11,inactive
OR1E2 (olfactory receptor family 1 subfamily E member 2),SID160719941,-0.437,-0.111,5.08,inactive
OR1E2 (olfactory receptor family 1 subfamily E member 2),SID160719942,2.84,22.9,13,inactive
OR1E2 (olfactory receptor family 1 subfamily E member 2),SID160735060,-0.165,1.8,3.99,inactive
OR52N4 (olfactory receptor family 52 subfamily N member 4),SID160766364,-0.868,-3.14,2.7,inactive
OR52N4 (olfactory receptor family 52 subfamily N member 4),SID160766365,-0.471,-0.349,3.25,inactive
OR52N4 (olfactory receptor family 52 subfamily N member 4),SID160766366,-0.432,-0.0693,4.6,inactive
ACTL9 (actin like 9),SID160763297,-0.395,0.187,3.71,inactive
ACTL9 (actin like 9),SID160763298,-0.263,1.11,3.47,inactive
ACTL9 (actin like 9),SID160763299,-0.579,-1.1,2.93,inactive
DHH (desert hedgehog signaling molecule),SID160731339,-1.23,-5.71,3.57,inactive
DHH (desert hedgehog signaling molecule),SID160739756,-0.548,-0.888,4.59,inactive
DHH (desert hedgehog signaling molecule),SID160739757,0.0194,3.1,5.07,inactive
TAAR5 (trace amine associated receptor 5),SID160721317,-0.537,-0.811,5.55,inactive
TAAR5 (trace amine associated receptor 5),SID160721318,-0.543,-0.852,4.22,inactive
TAAR5 (trace amine associated receptor 5),SID160721319,1.32,12.3,7.03,inactive
HSD17B6 (hydroxysteroid 17-beta dehydrogenase 6),SID160720462,0.358,5.49,6.67,inactive
HSD17B6 (hydroxysteroid 17-beta dehydrogenase 6),SID160720463,5.24,39.8,19.2,active
HSD17B6 (hydroxysteroid 17-beta dehydrogenase 6),SID160732076,3.01,24.2,15.5,inactive
"MAGEA5P (MAGE family member A5, pseudogene)",SID160776888,-0.199,1.57,5.64,inactive
"MAGEA5P (MAGE family member A5, pseudogene)",SID160776889,-0.368,0.379,4.37,inactive
"MAGEA5P (MAGE family member A5, pseudogene)",SID160776890,-0.453,-0.218,3.28,inactive
CHAF1A (chromatin assembly factor 1 subunit A),SID160724218,1.86,16,12.6,inactive
CHAF1A (chromatin assembly factor 1 subunit A),SID160724228,-0.275,1.03,4.37,inactive
CHAF1A (chromatin assembly factor 1 subunit A),SID160724235,0.547,6.82,5.89,inactive
FBXL15 (F-box and leucine rich repeat protein 15),SID160724547,-0.55,-0.9,4.21,inactive
FBXL15 (F-box and leucine rich repeat protein 15),SID160724548,0.358,5.49,4.15,inactive
FBXL15 (F-box and leucine rich repeat protein 15),SID160748758,3.55,27.9,16.7,inactive
AK4 (adenylate kinase 4),SID160715999,-0.298,0.87,5.89,inactive
AK4 (adenylate kinase 4),SID160716010,0.376,5.61,7.3,inactive
AK4 (adenylate kinase 4),SID160716020,-0.128,2.06,4.75,inactive
AK4 (adenylate kinase 4),SID160765698,-0.706,-2,3.09,inactive
AK4 (adenylate kinase 4),SID160765699,1.63,14.5,9.69,inactive
AK4 (adenylate kinase 4),SID160765700,-0.185,1.67,5.35,inactive
ITGB7 (integrin subunit beta 7),SID160776018,-0.904,-3.39,2.96,inactive
ITGB7 (integrin subunit beta 7),SID160776019,-1.41,-6.98,3.03,inactive
ITGB7 (integrin subunit beta 7),SID160776020,3.27,26,14.5,inactive
FAM161A (FAM161 centrosomal protein A),SID160751779,-0.801,-2.67,3.22,inactive
FAM161A (FAM161 centrosomal protein A),SID160751780,-0.4,0.15,3.5,inactive
FAM161A (FAM161 centrosomal protein A),SID160751781,-0.126,2.08,3.04,inactive
ZNF410 (zinc finger protein 410),SID160746769,-0.157,1.87,4.9,inactive
ZNF410 (zinc finger protein 410),SID160746771,2.66,21.7,14.6,inactive
ZNF410 (zinc finger protein 410),SID160746772,-0.176,1.73,4.96,inactive
OSBPL5 (oxysterol binding protein like 5),SID160750779,-0.415,0.0452,5.69,inactive
OSBPL5 (oxysterol binding protein like 5),SID160750883,-0.748,-2.29,3.98,inactive
OSBPL5 (oxysterol binding protein like 5),SID160750989,-0.621,-1.4,3.95,inactive
CFAP107 (cilia and flagella associated protein 107),SID160754459,0.679,7.74,7.37,inactive
CFAP107 (cilia and flagella associated protein 107),SID160754460,1.66,14.6,7.59,inactive
CFAP107 (cilia and flagella associated protein 107),SID160754461,-0.291,0.923,3.22,inactive
MIPOL1 (mirror-image polydactyly 1),SID160758220,0.136,3.93,5.14,inactive
MIPOL1 (mirror-image polydactyly 1),SID160758221,2.23,18.7,8.69,inactive
MIPOL1 (mirror-image polydactyly 1),SID160758222,3.28,26,12.1,inactive
ZNF462 (zinc finger protein 462),SID160746861,0.0275,3.16,3.91,inactive
ZNF462 (zinc finger protein 462),SID160746862,-0.787,-2.57,4.75,inactive
ZNF462 (zinc finger protein 462),SID160746863,-0.832,-2.89,2.73,inactive
PSMB3 (proteasome 20S subunit beta 3),SID160715188,8.54,63.1,27.5,active
PSMB3 (proteasome 20S subunit beta 3),SID160715189,1.33,12.3,9.26,inactive
PSMB3 (proteasome 20S subunit beta 3),SID160715191,0.303,5.1,5.81,inactive
ADAM22 (ADAM metallopeptidase domain 22),SID160741436,0.743,8.19,8.41,inactive
ADAM22 (ADAM metallopeptidase domain 22),SID160741438,-0.128,2.07,5.64,inactive
ADAM22 (ADAM metallopeptidase domain 22),SID160741439,-0.108,2.21,4.73,inactive
TMEM225 (transmembrane protein 225),SID160764063,-0.0766,2.43,4.82,inactive
TMEM225 (transmembrane protein 225),SID160764064,0.778,8.44,6.95,inactive
TMEM225 (transmembrane protein 225),SID160764065,1.4,12.8,9.36,inactive
TUBA3C-DT (TUBA3C divergent transcript),SID160725845,0.323,5.24,5.17,inactive
TUBA3C-DT (TUBA3C divergent transcript),SID160725846,0.0584,3.38,4.12,inactive
TUBA3C-DT (TUBA3C divergent transcript),SID160769666,-0.0481,2.63,4.77,inactive
TTPAL (alpha tocopherol transfer protein like),SID160748767,2.39,19.8,13.2,inactive
TTPAL (alpha tocopherol transfer protein like),SID160748768,0.555,6.88,7.69,inactive
TTPAL (alpha tocopherol transfer protein like),SID160748769,0.159,4.09,3.78,inactive
OSBPL9 (oxysterol binding protein like 9),SID160755075,2.14,18.1,11.3,inactive
OSBPL9 (oxysterol binding protein like 9),SID160755076,-0.569,-1.04,4.52,inactive
OSBPL9 (oxysterol binding protein like 9),SID160755077,-0.167,1.79,6.5,inactive
ZBTB43 (zinc finger and BTB domain containing 43),SID160730827,-0.627,-1.44,3.05,inactive
ZBTB43 (zinc finger and BTB domain containing 43),SID160735450,1.41,12.9,11.7,inactive
ZBTB43 (zinc finger and BTB domain containing 43),SID160735451,-0.365,0.396,3.51,inactive
TXNL1 (thioredoxin like 1),SID160722008,2.06,17.5,11,inactive
TXNL1 (thioredoxin like 1),SID160722009,0.364,5.53,7.21,inactive
TXNL1 (thioredoxin like 1),SID160722010,2.27,19,13.2,inactive
STC2 (stanniocalcin 2),SID160720431,1.87,16.1,10.9,inactive
STC2 (stanniocalcin 2),SID160720432,-0.668,-1.73,3.75,inactive
STC2 (stanniocalcin 2),SID160732072,1.33,12.3,9.12,inactive

Single entries from above.
TMEM225 (transmembrane protein 225) [SID160764063], activity call: inactive
Under “G2 robust z-score”, STC2 (stanniocalcin 2) [SID160720432] reads -0.668
For “raw share of cells in G2 (%)”, ACTL9 (actin like 9) [SID160763297] has 3.71
For “G2 cells, % of GMNN control”, OR52N4 (olfactory receptor family 52 subfamily N member 4) [SID160766364] reads -3.14
TUBA3C-DT (TUBA3C divergent transcript) [SID160725846], G2 cells, % of GMNN control: 3.38
Under “activity call”, OSBPL5 (oxysterol binding protein like 5) [SID160750989] reads inactive
